Source: PubChem BioAssay AID256 (DTP/NCI, 2004)
The list is a part of this screen's results and no random one: it is rich in T/C values a quarter to a half above the control, in often repeated tests (any T/C) and in doses without a T/C. Further doses and runs are listed elsewhere. T/C is the treated group as % of the vehicle group. Some entries give survivors of the animals treated and no T/C: the source files T/C as zero there, which appears to mark a toxic dose or a test without result, not a measured value. Some doses without a T/C left all or most animals alive at the check, yet need not have been tolerated: the source hardly ever lists a survival T/C far under the control, and the zero likely stands for such cases as well. Counts of survivors are from the toxicity check (mostly the fifth day) where no day follows; animals may have died later. Schedule codes are those of the source, read here as Q, the interval in days (D) or hours (H), X, the number of doses. Some doses were run more than once; their values stand side by side, smallest first. Some molecules as drawn cover several salts, stereoisomers or complexes of the source; a dose is that of the sample tested. For survival time, this PubChem deposit counts one and a half times the control or more as active, and values a quarter to a half above the control carry no call in these data; other NCI protocols may use other cut-offs. Marks such as (2×) count equal records among those shown.

System: CD2F1 mice, L1210 leukemia ip, survival T/C
Test: NCI In Vivo Anticancer Drug Screen. Data for tumor model L1210 Leukemia (intraperitoneal) in CD2F1 (CDF1) mice
Settings: higher T/C = longer survival
How it was run: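 Read-out first: treated-group measurement over vehicle-control measurement, expressed as a ratio. Animals bore a transplanted tumor line and were dosed with compound or vehicle.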

[1] = T/C endpoint: mean survival time, dose: 200.0 mg/kg/injection, schedule: Q01DX001 (ip), vehicle: saline with Tween-80
[2] = T/C endpoint: mean survival time, dose: 400.0 mg/kg/injection, schedule: Q01DX001 (ip), vehicle: saline with Tween-80
[3] = T/C endpoint: mean survival time, dose: 100.0 mg/kg/injection, schedule: Q01DX001 (ip), vehicle: other
[4] = T/C endpoint: mean survival time, dose: 200.0 mg/kg/injection, schedule: Q01DX001 (ip), vehicle: other
[5] = T/C endpoint: mean survival time, dose: 400.0 mg/kg/injection, schedule: Q01DX001 (ip), vehicle: other
[6] = T/C endpoint: mean survival time, dose: 200.0 mg/kg/injection, schedule: Q04DX003 (ip), vehicle: saline with Tween-80
[7] = T/C endpoint: mean survival time, dose: 400.0 mg/kg/injection, schedule: Q04DX003 (ip), vehicle: saline with Tween-80

**Q.** What does the source list for CCCCN=Cc1ccccc1O.CCCCN=Cc1ccccc1O.[Cr]?
**A.** T/C [1]: 143 % of control; survivor count [2]: 0 of 6

**Q.** How did the survivor count [3] turn out when S=c1nc[nH]c2nncnc12 was run?
**A.** 0 of 6

**Q.** And the survivor count [4]?
**A.** 0 of 6

**Q.** And the survivor count [5]?
**A.** 0 of 6

**Q.** Which survivor count (T/C endpoint: mean survival time, dose: 100.0 mg/kg/injection, schedule: Q04DX002 (ip), vehicle: saline) does the source give for CC1C(N)CC2CC1C2(C)C (stereo not drawn) here?
**A.** 1 of 3

**Q.** And the survivor count (T/C endpoint: mean survival time, dose: 200.0 mg/kg/injection, schedule: Q04DX002 (ip), vehicle: saline)?
**A.** 0 of 3

**Q.** What about the survivor count (T/C endpoint: mean survival time, dose: 400.0 mg/kg/injection, schedule: Q04DX002 (ip), vehicle: saline) of the same molecule?
**A.** 0 of 3

**Q.** For [O]=[Sb]([c]1ccccc1)([c]1ccccc1)[c]1ccccc1, which survivor count [6] is on record?
**A.** 3 of 3

**Q.** What about the survivor count [7] of the same molecule?
**A.** 0 of 3

**Q.** Which results are given for O=C(CC(O)(C(F)(F)F)C(F)(F)F)CC(O)(C(F)(F)F)C(F)(F)F?
**A.** survivor count (T/C endpoint: mean survival time, dose: 10.0 mg/kg/injection, schedule: Q01DX001 (ip), vehicle: saline with Tween-80): 2 of 6; survivor count (T/C endpoint: mean survival time, dose: 20.0 mg/kg/injection, schedule: Q01DX001 (ip), vehicle: saline with Tween-80): 0 of 6; survivor count (T/C endpoint: mean survival time, dose: 20.0 mg/kg/injection, schedule: Q04DX003 (ip), vehicle: saline): 0 of 6; survivor count (T/C endpoint: mean survival time, dose: 50.0 mg/kg/injection, schedule: Q04DX003 (ip), vehicle: other): 3 of 6; survivor count (T/C endpoint: mean survival time, dose: 100.0 mg/kg/injection, schedule: Q01DX001 (ip), vehicle: saline with Tween-80): 0 of 6; survivor count (T/C endpoint: mean survival time, dose: 100.0 mg/kg/injection, schedule: Q04DX003 (ip), vehicle: other): 0 of 6; survivor count (T/C endpoint: mean survival time, dose: 100.0 mg/kg/injection, schedule: Q04DX003 (ip), vehicle: saline with Tween-80): 0 of 6; survivor count [1]: 0 of 6; survivor count (T/C endpoint: mean survival time, dose: 200.0 mg/kg/injection, schedule: Q04DX003 (ip), vehicle: other): 0 of 6; survivor count [6]: 0 of 6; survivor count [2]: 0 of 6; survivor count (T/C endpoint: mean survival time, dose: 400.0 mg/kg/injection, schedule: Q04DX003 (ip), vehicle: other): 0 of 6; survivor count [7]: 0 of 6

**Q.** How did the survivor count (T/C endpoint: mean survival time, dose: 12.0 mg/kg/injection, schedule: Q01DX009 (ip), vehicle: Klucel (hydroxypropylcellulose) (HPC)) turn out when CC(=O)O[C@@H]1CO[C@H]2O[C@H]3[C@@H](C(C=O)=C[C@H](O)[C@@H]4C5=C(C(C)C)CC[C@]5(C)CC[C@@]34C)[C@@]2(O)C1=O was run?
**A.** 2 of 6

**Q.** What about the survivor count (T/C endpoint: mean survival time, dose: 24.0 mg/kg/injection, schedule: Q01DX009 (ip), vehicle: Klucel (hydroxypropylcellulose) (HPC)) of the same molecule?
**A.** 0 of 6

**Q.** With COC(=O)c1[nH]cnc1/N=N\N(CCF)CCF as the molecule, how does the T/C (T/C endpoint: mean survival time, dose: 8.4 mg/kg/injection, schedule: Q01DX009 (ip), vehicle: carboxymethylcellulose (CMC)) read?
**A.** 132 % of control

**Q.** And the survivor count [3]?
**A.** 3 of 6

**Q.** And the survivor count [4]?
**A.** 1 of 6

**Q.** And the survivor count [5]?
**A.** 0 of 6

**Q.** With CCCCOP(=O)(OC)OCCCC as the molecule, how does the survivor count (T/C endpoint: mean survival time, dose: 400.0 mg/kg/injection, schedule: Q04DX002 (ip), vehicle: saline with Tween-80) read?
**A.** 0 of 3

**Q.** For Cc1ccc(C(SCC(N)C(=O)O)(c2ccc(C)cc2)c2ccc(C)cc2)cc1 (stereo not drawn), which T/C (T/C endpoint: mean survival time, dose: 25.0 mg/kg/injection, schedule: Q01DX009 (ip), vehicle: saline) is on record?
**A.** 125 % of control

**Q.** And the T/C (T/C endpoint: mean survival time, dose: 50.0 mg/kg/injection, schedule: Q01DX009 (ip), vehicle: saline)?
**A.** 147 % of control

**Q.** For O=C1N[C@H]2[C@H](O)[C@H](O)[C@@H](O)[C@H](O)[C@@H]2c2cc3c(c(O)c21)OCO3, which T/C (T/C endpoint: median survival time, dose: 1.56 mg/kg/injection, schedule: Q01DX009 (ip), vehicle: saline + alcohol) is on record?
**A.** 131 % of control

**Q.** What about the T/C (T/C endpoint: median survival time, dose: 3.0 mg/kg/injection, schedule: Q01DX009 (ip), vehicle: saline + alcohol) of the same molecule?
**A.** 133 % of control

**Q.** And the T/C (T/C endpoint: median survival time, dose: 3.12 mg/kg/injection, schedule: Q01DX009 (ip), vehicle: saline + alcohol)?
**A.** 131 % of control

**Q.** What about the survivor count (T/C endpoint: median survival time, dose: 6.0 mg/kg/injection, schedule: Q01DX009 (ip), vehicle: saline + alcohol) of the same molecule?
**A.** 3 of 6

**Q.** What about the survivor count (T/C endpoint: median survival time, dose: 6.25 mg/kg/injection, schedule: Q01DX009 (ip), vehicle: saline + alcohol) of the same molecule?
**A.** 0 of 6

**Q.** And the survivor count (T/C endpoint: median survival time, dose: 12.5 mg/kg/injection, schedule: Q01DX009 (ip), vehicle: saline + alcohol)?
**A.** 0 of 6

**Q.** And the survivor count (T/C endpoint: median survival time, dose: 25.0 mg/kg/injection, schedule: Q01DX009 (ip), vehicle: saline + alcohol)?
**A.** 0 of 6

**Q.** Which T/C (T/C endpoint: median survival time, dose: 6.25 mg/kg/injection, schedule: Q01DX005 (ip), vehicle: Klucel + Tween-80) does the source give for N=C(N)c1nn(C2OC(CO)C(O)C2O)c2nc[nH]c(=O)c12 (stereo not drawn) here?
**A.** 128 and 130 % of control

**Q.** And the T/C (T/C endpoint: median survival time, dose: 12.5 mg/kg/injection, schedule: Q01DX005 (ip), vehicle: Klucel + Tween-80)?
**A.** 136 and 142 % of control

**Q.** What about the T/C (T/C endpoint: median survival time, dose: 25.0 mg/kg/injection, schedule: Q01DX005 (ip), vehicle: Klucel + Tween-80) of the same molecule?
**A.** 142 % of control

**Q.** What about the survivor count (T/C endpoint: median survival time, dose: 50.0 mg/kg/injection, schedule: Q01DX005 (ip), vehicle: Klucel + Tween-80) of the same molecule?
**A.** 0 of 6, 4 of 6, 5 of 6

**Q.** What about the survivor count (T/C endpoint: median survival time, dose: 100.0 mg/kg/injection, schedule: Q01DX005 (ip), vehicle: Klucel + Tween-80) of the same molecule?
**A.** 0 of 6

**Q.** And the survivor count (T/C endpoint: median survival time, dose: 200.0 mg/kg/injection, schedule: Q01DX005 (ip), vehicle: Klucel + Tween-80)?
**A.** 0 of 6

**Q.** Cc1cc(NC(=O)Oc2ccc([N+](=O)[O-])cc2)ccc1S(=O)(=O)F was tested. Which T/C (T/C endpoint: mean survival time, dose: 100.0 mg/kg/injection, schedule: Q01DX009 (ip), vehicle: saline with Tween-80) did it give?
**A.** 91, 95, 96 % of control (2×)

**Q.** What about the survivor count (T/C endpoint: mean survival time, dose: 200.0 mg/kg/injection, schedule: Q01DX009 (ip), vehicle: saline with Tween-80) of the same molecule?
**A.** 3 of 3

**Q.** And the survivor count (T/C endpoint: mean survival time, dose: 400.0 mg/kg/injection, schedule: Q01DX009 (ip), vehicle: saline with Tween-80)?
**A.** 1 of 3 and 5 of 6
